Source: article doi:10.1101/517771
These are yes or no findings as the source states them, for the method shown. Some results given as binding are weak or reduced against the parent protein; the word gives no strength.

Chains of the proteins cited; added tags and fusions are not shown.
UniProt Q9UQ84: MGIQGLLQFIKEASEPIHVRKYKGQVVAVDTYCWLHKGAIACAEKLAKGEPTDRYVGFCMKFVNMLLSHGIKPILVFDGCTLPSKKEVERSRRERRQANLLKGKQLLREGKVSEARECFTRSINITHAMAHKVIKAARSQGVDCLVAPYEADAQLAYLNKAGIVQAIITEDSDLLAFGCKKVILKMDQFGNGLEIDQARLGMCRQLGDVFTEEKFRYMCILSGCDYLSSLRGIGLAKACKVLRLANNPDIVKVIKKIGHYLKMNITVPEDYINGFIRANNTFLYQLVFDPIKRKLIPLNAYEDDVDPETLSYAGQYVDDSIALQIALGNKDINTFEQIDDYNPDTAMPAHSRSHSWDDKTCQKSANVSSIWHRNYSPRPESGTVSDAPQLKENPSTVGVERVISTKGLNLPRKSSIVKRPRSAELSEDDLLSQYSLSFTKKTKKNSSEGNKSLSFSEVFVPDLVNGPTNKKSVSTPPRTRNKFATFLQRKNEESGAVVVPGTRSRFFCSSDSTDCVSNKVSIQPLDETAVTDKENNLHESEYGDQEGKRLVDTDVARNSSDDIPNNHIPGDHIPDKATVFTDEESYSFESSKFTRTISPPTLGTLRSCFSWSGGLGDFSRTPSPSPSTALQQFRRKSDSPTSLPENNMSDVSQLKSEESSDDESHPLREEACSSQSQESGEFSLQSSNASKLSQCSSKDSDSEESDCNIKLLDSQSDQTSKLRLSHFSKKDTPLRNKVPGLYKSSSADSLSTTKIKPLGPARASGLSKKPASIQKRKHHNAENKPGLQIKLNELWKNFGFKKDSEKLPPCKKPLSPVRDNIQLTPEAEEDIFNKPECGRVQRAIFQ
UniProt P54132: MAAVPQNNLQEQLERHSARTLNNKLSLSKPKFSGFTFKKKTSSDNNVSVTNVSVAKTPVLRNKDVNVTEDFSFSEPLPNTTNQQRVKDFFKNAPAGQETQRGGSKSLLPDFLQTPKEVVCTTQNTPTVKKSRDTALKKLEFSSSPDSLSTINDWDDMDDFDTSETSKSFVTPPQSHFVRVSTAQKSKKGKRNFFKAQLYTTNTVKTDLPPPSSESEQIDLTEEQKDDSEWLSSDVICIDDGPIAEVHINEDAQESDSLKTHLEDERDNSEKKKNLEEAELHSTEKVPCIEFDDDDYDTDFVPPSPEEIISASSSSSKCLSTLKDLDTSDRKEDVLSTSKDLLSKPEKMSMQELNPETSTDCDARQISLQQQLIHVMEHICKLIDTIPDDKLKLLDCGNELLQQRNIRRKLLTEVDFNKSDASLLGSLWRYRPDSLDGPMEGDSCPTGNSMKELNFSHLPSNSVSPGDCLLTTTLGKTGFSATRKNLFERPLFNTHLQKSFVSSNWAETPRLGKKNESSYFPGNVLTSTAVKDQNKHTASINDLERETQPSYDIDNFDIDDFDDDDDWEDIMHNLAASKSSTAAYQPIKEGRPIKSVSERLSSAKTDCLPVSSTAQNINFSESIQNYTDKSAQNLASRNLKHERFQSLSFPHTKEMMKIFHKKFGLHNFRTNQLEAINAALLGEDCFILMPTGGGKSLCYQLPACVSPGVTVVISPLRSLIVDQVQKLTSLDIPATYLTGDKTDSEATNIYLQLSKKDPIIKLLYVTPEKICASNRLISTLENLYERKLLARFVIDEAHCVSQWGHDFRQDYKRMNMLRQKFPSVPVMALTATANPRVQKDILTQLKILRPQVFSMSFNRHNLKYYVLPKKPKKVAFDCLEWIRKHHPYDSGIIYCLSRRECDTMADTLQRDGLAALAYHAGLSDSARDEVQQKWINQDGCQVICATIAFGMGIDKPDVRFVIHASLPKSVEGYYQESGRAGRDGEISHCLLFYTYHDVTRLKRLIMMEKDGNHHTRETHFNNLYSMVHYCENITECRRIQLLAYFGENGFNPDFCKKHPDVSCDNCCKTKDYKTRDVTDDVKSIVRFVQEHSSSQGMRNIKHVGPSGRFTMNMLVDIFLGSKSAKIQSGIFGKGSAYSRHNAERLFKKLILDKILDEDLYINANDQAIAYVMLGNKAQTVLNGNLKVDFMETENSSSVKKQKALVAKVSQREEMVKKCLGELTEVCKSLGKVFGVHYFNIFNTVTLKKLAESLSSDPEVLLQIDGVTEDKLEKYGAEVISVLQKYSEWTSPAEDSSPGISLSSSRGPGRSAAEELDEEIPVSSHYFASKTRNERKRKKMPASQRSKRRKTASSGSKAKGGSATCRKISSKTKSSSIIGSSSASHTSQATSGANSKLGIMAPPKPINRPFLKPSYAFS

Target: biotinylated human Exonuclease 1 (EXO1) (human) (UniProt Q9UQ84)
Assay: pull-down

binding: binds
Substance: FLAG-BLM (Bloom's Syndrome helicase) (from UniProt P54132 1-1417) (enzyme)
